# Data from article PMC10169810, “Ligand-induced activation and G protein coupling of prostaglandin F2α receptor” (Nature Communications, 2023).
# Where “and” joins values, the source holds several entries; their conditions need not be identical. Equal values may be shown once.
# System: WT or mutants FP
# Experiment: Receptor cell-surface expression by flow cytometry
# Format: cell-based, human
# Conditions: source data of Supplementary Fig. 5d; three individual replicate values per receptor construct; no ligand
row,Substance,Receptor cell-surface expression of WT or mutant FP (Supplementary Fig. 5d)
1,F187A,130.86 and 102.97 and 92.45
2,F265A,106.02 and 90.98 and 90.80
3,S118F,116.00 and 106.83 and 96.29
4,R291A,88.67 and 103.68 and 90.82
5,L290A,101.13 and 82.86 and 104.85
6,I298A,104.12 and 129.25 and 130.36
7,H81A,99.15 and 107.28 and 64.39
8,Y92A,88.79 and 116.96 and 120.70
9,N84T,98.85 and 106.79 and 105.50
10,Q297A,95.58 and 110.44 and 105.46
11,F205A,99.29 and 98.25 and 95.87
12,M115A,103.38 and 90.45 and 114.39
13,N84A,65.82 and 118.16 and 109.68
14,W262A,102.54 and 96.76 and 88.97
15,WT,93.36 and 105.29 and 101.35
16,S118A,122.03 and 115.33 and 104.09
17,T294S,94.82 and 97.77 and 92.26
18,W185A,106.04 and 90.97 and 102.99
19,S33A,98.41 and 107.52 and 102.41
20,S118N,119.98 and 116.97 and 59.11
21,T294A,89.16 and 88.76 and 94.97
